In PubChem BioAssay AID743266 (National Center for Advancing Translational Sciences (NCATS), 2014):
The campaign covered roughly 410,000 compounds. About 310 (0.076%) were called active. The shares of active, inactive and inconclusive entries below differ from those in the screen. Calls come from the whole dose curve; as a rule, active = well fitted activation curve with a large enough effect; inconclusive = small, poorly fitted or top-dose-only effect, or another doubt; inactive = no such curve, though single readings can be large or run the other way. Where the call is inconclusive, the potency comes from a doubtful curve fit.

By UniProt entry, the sequences of proteins in these tests, tags left out. Where a name states a change or a piece, a line headed by the entry shows the natural chain unless it says otherwise.
UniProt Q03431: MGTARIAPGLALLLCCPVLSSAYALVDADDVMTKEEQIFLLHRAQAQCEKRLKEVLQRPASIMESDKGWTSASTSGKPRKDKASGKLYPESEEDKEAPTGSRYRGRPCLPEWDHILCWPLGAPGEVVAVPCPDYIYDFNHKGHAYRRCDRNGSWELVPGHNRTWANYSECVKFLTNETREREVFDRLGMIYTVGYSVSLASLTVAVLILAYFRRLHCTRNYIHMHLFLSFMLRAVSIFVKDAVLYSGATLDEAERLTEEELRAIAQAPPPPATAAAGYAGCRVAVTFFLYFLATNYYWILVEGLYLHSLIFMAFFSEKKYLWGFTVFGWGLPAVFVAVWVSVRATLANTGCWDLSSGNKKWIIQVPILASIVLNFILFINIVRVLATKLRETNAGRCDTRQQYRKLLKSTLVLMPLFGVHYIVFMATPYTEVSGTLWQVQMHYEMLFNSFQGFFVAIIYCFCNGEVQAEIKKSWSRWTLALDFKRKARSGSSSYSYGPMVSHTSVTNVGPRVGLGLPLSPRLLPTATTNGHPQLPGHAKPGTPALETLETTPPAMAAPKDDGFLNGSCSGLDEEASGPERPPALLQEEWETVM

molecular target: Parathyroid hormone/parathyroid hormone-related peptide receptor (Homo sapiens) (UniProt Q03431); assay: qHTS for PTHR1 Agonists: Primary Screen; conditions: HEK293 GP2 PTHR1 cells, GloSensor cAMP luminescence, 1 h; activation: at 115 µM (top of the series) unless noted; series mostly up to 115 µM; note: nearly all actives have a fitted effect of over 55% in size
Outline: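 HEK-293-derived GP2 cells expressing PTHR1 and a GloSensor cAMP reporter, 3,000/well, plated overnight, given luciferin plus IBMX (each 0.5 mM as added) for 1 h at 37 °C, then compound for 1 h at 37 °C. Luminescence was read after 15 min at room temperature.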
Potency is the fitted concentration of half-maximal effect.

| Structure (SMILES) | Potency | activation |
| --- | --- | --- |
| CCc1ccccc1NC(=O)Cn1nnc(-c2nc(-c3ccc(C)cc3)no2)c1N | inconclusive: 126 µM [activator, single point] | – |
| CCOC(=O)c1c(C)[nH]c(C)c1S(=O)(=O)N1CCC(C(=O)Nc2ccc(F)cc2F)CC1 | inactive | – |
| C/C(=N\NC(=O)COc1cccc(C)c1)c1ccc2ccccc2c1O | inactive | – |
| CCC(C)N(C(=O)CSc1nnnn1-c1ccccc1OC)C1CCS(=O)(=O)C1 (stereo not given) | inconclusive: 8.91 µM [activator, full curve, poor fit] | – |
| O=C(c1ccco1)N1CCN(CC(O)COc2ccc(Br)cc2)CC1 (stereo not given) | inactive | – |
| CCOC(=O)c1c(NC(=O)/C=C/c2ccc(OC)c(OC)c2)sc(C(C)=O)c1C | – | inconclusive: 43.7% [activator] |
| O=C(COc1ccc(Cl)cc1)Nc1ccccc1C(=O)OCc1cc(=O)n2ccsc2n1 | inactive | – |
| CN(CC(=O)N1CCOCC1)S(=O)(=O)c1ccc2ccccc2c1 | inconclusive: 100 µM [activator, partial curve, poor fit] | – |
| CCOc1ccc(NC(=O)[C@H](Cc2ccccc2)NC(=O)C2CCNCC2)cc1 | inconclusive: 14.1 µM [activator, partial curve] | – |
| COc1ccc(Cn2c(=O)c3cccnc3n(Cc3ccc([N+](=O)[O-])cc3)c2=O)cc1 | inconclusive: 15.8 µM [activator, partial curve] | – |
| CN(C1CCCCC1)S(=O)(=O)c1ccc(=S)[nH]c1 | inactive | – |
| COc1cccc(C(NC(C)=O)c2nc(-c3cccc(C#N)c3)cs2)c1 (stereo not given) | inconclusive: 1.12 µM [activator, full curve] | – |
| Cc1cc(C)nc(SCC(=O)NCC2COc3ccccc3O2)n1 (stereo not given) | inactive | – |
| Nc1nc(-c2cccnc2)nn1C(=O)CCc1ccccc1 | – | inconclusive: 35.7% [activator] [at 57.5 µM] |
| Cn1nccc1NC(=O)CSCC(=O)O | inactive | – |
| CC1(N(O)/C=C2\C=CC=CC2=O)CCCCC1=O (stereo not given) | inconclusive: 11.2 µM [activator, partial curve, poor fit] | – |
| CC(C)Oc1ccc(CNC(=O)c2ccc(NC(=O)N3CCSc4ncccc43)cc2)cc1 | inconclusive: 0.767 µM [activator, full curve] | – |
| CCOC(=O)c1c(NC(=O)Cn2nc(C(=O)O)c3ccccc3c2=O)sc2c1CCC(C)C2 (stereo not given) | – | inconclusive: 25.1% [activator] |
| CN(C)C=NCCn1c(N2CCOCC2)nc2c1c(=O)n(C)c(=O)n2C | inconclusive: 141 µM [activator, single point] | – |
| Cc1ccc2c(CN3CCCCC3CCO)cc(=O)oc2c1 (stereo not given) | inactive | – |
| Cc1ccc(S(=O)(=O)c2nc(-c3ccccc3Cl)oc2N2CCCCCC2)cc1 | inactive | – |
| O=C1CN(Cc2nc3cc(Cl)ccc3c(=O)[nH]2)CCN1 | – | inconclusive: 27% [activator] |
| COc1ccc(OC)c(Cc2nnc(CCC(=O)NCc3ccc(C)s3)o2)c1 | inconclusive: 28.2 µM [activator, single point] | – |
| CC(=O)c1cc(C#N)c(SCCC(C)C)nc1C | inactive | – |

| Structure (SMILES) | Potency | activation |
| --- | --- | --- |
| CCN1CCc2c(sc(N)c2C(N)=O)C1 | inconclusive: 50.1 µM [activator, partial curve, poor fit] | – |
| Cn1cc(CCC(=O)NCc2ccc(Cl)cc2)c2ccccc21 | inconclusive: 5.62 µM [activator, full curve, poor fit] | – |
| CN(C)c1nc(C=C(C#N)C#N)c(Cl)n1-c1ccc(F)cc1 | inactive | – |
| COC(=O)C(Cc1ccccc1)NC(=O)CNS(=O)(=O)c1ccc(Br)cc1 (stereo not given) | inconclusive: 43.1 µM [activator, partial curve, poor fit] | – |
| COC(=O)CC(=O)CSc1nc2c(cc1C#N)CCC2 | inconclusive: 39.8 µM [activator, single point] | – |
| CC1C(=O)Nc2ccc(S(=O)(=O)NCc3ccc(N(C)C)cc3)cc2NC1=O (stereo not given) | inconclusive: 112 µM [activator, single point] | – |
| CCOC(=O)c1sc(=NC(=O)c2ccc(Br)cc2)n(C)c1C | – | inconclusive: -60.5% [activator] |
| Cc1cc(C(=O)OCC(=O)N2CCOCC2)c(C)n1-c1ccccc1 | inconclusive: 126 µM [activator, single point] | – |
| Cc1ccccc1NC(=S)NCC1CCN(C(C)c2ccccc2)C1 (stereo not given) | inconclusive: 126 µM [activator, single point] | – |
| CCN1CCc2nc3sc(C(=O)c4ccccc4)c(N)c3cc2C1 | inactive | – |
| CCSc1nnc(-c2ccc(S(=O)(=O)N3CCOCC3)cc2)n1CC1CCCO1 (stereo not given) | inconclusive: 39.8 µM [activator, single point] | – |
| COC(=O)c1cc(S(=O)(=O)NCC2CCN(Cc3ccc(F)cc3)CC2)c[nH]1 | inconclusive: 112 µM [activator, single point] | – |
| Cc1ccc(Cl)cc1N1CCN(C(c2ccc(C#N)cc2)c2nnnn2C2CCCC2)CC1 (stereo not given) | – | inconclusive: 128% [activator] [at 57.5 µM] |
| O=C(O)CCC(=O)Nc1cccc(C(=O)Nc2cccc(Cl)c2)c1 | – | inconclusive: 5.88% [activator] [at 57.5 µM] |
| Cc1cccc(CC(=O)NC2CCN(C)CC2)c1 | inactive | – |
| Cc1ccsc1/C=N/n1cnc2sc(C)c(C)c2c1=O | inactive | – |
| CCOC(=O)N1CCN(Cc2nc3cc(NC(=O)C(C)C)ccc3n2C(C)C)CC1 | – | inconclusive: 78.1% [activator] |
| Cn1c(=O)n(C)c2cc([N+](=O)[O-])c(N3CCN(S(=O)(=O)c4ccc5ccccc5c4)CC3)cc21 | inactive | – |
| CCN1CCCC1CN(Cc1cc2ccc(C)cc2[nH]c1=O)C(=S)Nc1ccccc1C(=O)OC (stereo not given) | inconclusive: 11.2 µM [activator, full curve] | – |
| COc1cc(NC(=O)COC(=O)CCCC2=NS(=O)(=O)c3ccccc3N2)cc(OC)c1 | inconclusive: 126 µM [activator, single point] | – |
| COC(=O)N/N=C/c1ccc(OS(=O)(=O)c2ccc(C)cc2)c(OC)c1 | inactive | – |
| Cc1cc(C)nc(/N=C2/NC(=O)CS2)n1 | inconclusive: 35.5 µM [activator, single point] | – |
| NN1C(=O)c2cccc3c(C(=O)O)ccc(c23)C1=O | inconclusive: 112 µM [activator, single point] | – |
| Cc1ccc(NS(=O)(=O)c2ccc(-c3ccc(=O)[nH]n3)o2)cc1N(C)C | – | inconclusive: 35.3% [activator] |

| Structure (SMILES) | Potency | activation |
| --- | --- | --- |
| CC(C(=O)N1c2ccccc2CC1C)N1CCN(S(=O)(=O)c2ccccc2F)CC1 (stereo not given) | inconclusive: 15.8 µM [activator, partial curve, poor fit] | – |
| COc1ccc(C(=O)CCC(C)(C)[N+](=O)[O-])cc1OC | inactive | – |
| Cc1ccc(C)c(S(=O)(=O)c2nnn3c2nc(Nc2ccc(C)c(C)c2)c2ccccc23)c1 | inconclusive: 28.2 µM [activator, partial curve, poor fit] | – |
| COCCCNC(=O)c1ccc2c(=O)n(CC3CCCO3)c(=S)[nH]c2c1 (stereo not given) | inconclusive: 6.31 µM [activator, single point] | – |
| CC1(C)CC(=O)C(C=Nc2ccncc2)=C(O)C1 | inconclusive: 50.1 µM [activator, partial curve, poor fit] | – |
| Cc1ccccc1N1CCN(Cc2c[nH]c3ccccc23)CC1 | active: 3.98 µM | – |
| COc1ccccc1NC(=O)Cn1c(=O)n(CCC(=O)NCC2CCCO2)c(=O)c2cc(OC)c(OC)cc21 (stereo not given) | inconclusive: 25.1 µM [activator, single point] | – |
| COc1cc(NS(=O)(=O)c2cc3c(cc2C)N(C)CCO3)cc(OC)c1OC | inactive | – |
| COc1cc(C(c2nnnn2C2CCCC2)N2CCN(C(=O)c3ccco3)CC2)cc(OC)c1OC (stereo not given) | – | inconclusive: -41.9% [activator] |
| COc1cc(NC(=O)c2cccc(S(=O)(=O)N3CCCCC3)c2)cc(OC)c1OC | inconclusive: 5.62 µM [activator, partial curve] | – |
| CCc1ccc(NC(=O)CSc2ccc(-c3ccccn3)nn2)cc1 | inactive | – |
| Cc1ccc(Cl)cc1NC(=O)COCc1cc(-c2ccco2)on1 | inconclusive: 126 µM [activator, single point] | – |
| CC(C)(C)c1ccc(C2NC(=O)c3n[nH]c(-c4cccs4)c32)cc1 (stereo not given) | inactive | – |
| COc1ccc(S(=O)(=O)N2CCN(c3ccccn3)CC2)cc1OC | – | inconclusive: 43.4% [activator] [at 57.5 µM] |
| Cc1ccc(NC(=O)CCNCc2ccco2)cc1S(=O)(=O)N(C)C | inconclusive: 158 µM [activator, single point] | – |
| C=CCNC(=O)C1CCN(c2cnccn2)CC1 | inconclusive: 44.7 µM [activator, partial curve, poor fit] | – |
| Cc1ccc(O)c(C(=O)c2cc(C#N)c(=O)n(-c3c(C)n(C)n(-c4ccccc4)c3=O)c2)c1 | inconclusive: 1.12 µM [activator, full curve, poor fit] | – |
| CC1CCCN(c2cc3c(cc2F)c(=O)c(S(=O)(=O)c2cccc(Cl)c2)cn3C)C1 (stereo not given) | inactive | – |
| N#Cc1nccnc1N1CCN(C(=O)Nc2ccccc2)CC1 | – | inconclusive: 69.2% [activator] |
| CCc1ccc(NC(=O)CSc2nc3ccccc3nc2Cc2ccccc2OC)cc1 | inconclusive: 50.1 µM [activator, partial curve, poor fit] | – |
| Cc1ccc(CNC(=O)c2nc(-c3ccc(Cl)cc3)n3c2CCCCC3)cc1 | inactive | – |
| Cc1cc(C)c(NC2=CC(=O)CC(C)(C)C2)c(C#N)c1 | – | inconclusive: 75% [activator] [at 57.5 µM] |

Reformatted bar-delimited: two of the compounds above
Structure (SMILES) | Potency | activation
O=C(O)CCC(=O)Nc1cccc(C(=O)Nc2cccc(Cl)c2)c1 | – | inconclusive: 5.88% [activator] [at 57.5 µM]
Cc1cccc(CC(=O)NC2CCN(C)CC2)c1 | inactive | –
